PMC2590617
No constants are given. Whether binding was seen depends on the method and setting. Binding seen in cells or lysates may run through a third protein. Some entries that bind do so weakly or less than the wild type.

Protein sequences, listed by entry. Tags and fused reporters are not part of them. Residues count along the entry.
UniProt O14763, residues 56-440: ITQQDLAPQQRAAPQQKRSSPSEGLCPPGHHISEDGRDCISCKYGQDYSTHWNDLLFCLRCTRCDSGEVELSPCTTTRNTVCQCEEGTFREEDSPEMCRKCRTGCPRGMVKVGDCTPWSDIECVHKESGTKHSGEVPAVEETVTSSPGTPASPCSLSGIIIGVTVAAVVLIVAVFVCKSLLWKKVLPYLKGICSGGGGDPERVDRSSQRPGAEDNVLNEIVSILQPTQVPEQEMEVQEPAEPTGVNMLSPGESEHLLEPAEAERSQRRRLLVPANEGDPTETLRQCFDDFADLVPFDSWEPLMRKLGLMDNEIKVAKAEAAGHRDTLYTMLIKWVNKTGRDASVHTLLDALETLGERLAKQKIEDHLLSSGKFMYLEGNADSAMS
UniProt Q13158: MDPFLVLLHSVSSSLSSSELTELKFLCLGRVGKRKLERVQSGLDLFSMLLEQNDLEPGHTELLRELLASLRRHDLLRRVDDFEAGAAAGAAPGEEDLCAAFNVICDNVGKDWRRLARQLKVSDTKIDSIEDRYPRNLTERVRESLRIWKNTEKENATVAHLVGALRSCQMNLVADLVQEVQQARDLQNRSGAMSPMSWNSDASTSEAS
UniProt P08581, residues 25-1390: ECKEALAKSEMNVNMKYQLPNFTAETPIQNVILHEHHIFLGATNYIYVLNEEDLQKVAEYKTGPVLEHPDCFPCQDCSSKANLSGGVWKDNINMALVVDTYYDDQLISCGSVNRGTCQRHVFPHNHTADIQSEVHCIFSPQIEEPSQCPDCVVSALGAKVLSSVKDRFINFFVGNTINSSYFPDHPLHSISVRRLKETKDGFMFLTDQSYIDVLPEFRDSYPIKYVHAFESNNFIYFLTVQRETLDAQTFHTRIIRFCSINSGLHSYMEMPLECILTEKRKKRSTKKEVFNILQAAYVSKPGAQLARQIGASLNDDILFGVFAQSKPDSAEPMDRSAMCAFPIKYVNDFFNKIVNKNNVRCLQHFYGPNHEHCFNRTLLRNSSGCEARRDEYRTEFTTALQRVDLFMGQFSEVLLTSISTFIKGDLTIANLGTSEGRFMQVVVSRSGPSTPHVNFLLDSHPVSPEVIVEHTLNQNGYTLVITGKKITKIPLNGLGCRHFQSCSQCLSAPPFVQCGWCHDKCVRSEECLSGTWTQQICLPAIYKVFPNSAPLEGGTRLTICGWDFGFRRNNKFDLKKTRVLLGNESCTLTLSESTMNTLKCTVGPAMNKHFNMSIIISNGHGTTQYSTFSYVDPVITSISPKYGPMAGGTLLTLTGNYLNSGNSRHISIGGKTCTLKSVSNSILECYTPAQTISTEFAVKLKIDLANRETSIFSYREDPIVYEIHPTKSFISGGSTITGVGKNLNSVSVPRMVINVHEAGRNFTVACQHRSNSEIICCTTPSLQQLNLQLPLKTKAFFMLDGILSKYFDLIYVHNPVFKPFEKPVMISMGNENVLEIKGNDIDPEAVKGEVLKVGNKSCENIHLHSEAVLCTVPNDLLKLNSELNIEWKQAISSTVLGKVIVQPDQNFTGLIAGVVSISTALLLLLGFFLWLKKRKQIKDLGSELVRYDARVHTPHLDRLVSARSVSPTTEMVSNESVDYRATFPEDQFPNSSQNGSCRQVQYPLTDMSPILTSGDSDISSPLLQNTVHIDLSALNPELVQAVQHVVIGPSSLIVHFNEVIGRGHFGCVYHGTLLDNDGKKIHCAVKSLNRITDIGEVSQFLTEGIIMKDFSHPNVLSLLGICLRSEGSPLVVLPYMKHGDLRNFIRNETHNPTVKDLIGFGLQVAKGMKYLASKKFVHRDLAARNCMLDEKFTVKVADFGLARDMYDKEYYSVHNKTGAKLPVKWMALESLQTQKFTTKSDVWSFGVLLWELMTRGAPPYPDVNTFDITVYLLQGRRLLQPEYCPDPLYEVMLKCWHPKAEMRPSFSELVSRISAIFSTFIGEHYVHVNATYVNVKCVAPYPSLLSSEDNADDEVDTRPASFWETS

Molecular target: death receptor DR5, tumor necrosis factor receptor superfamily member 10b (TNFRSF10B) (human (endogenous in DAOY)) (UniProt O14763)
Assay: co-IP; DAOY cells pre-treated with HGF for 72 h, then TRAIL for 2 h; 500 ug total protein in lysis buffer (100 mM Tris-HCl, 5 uM EDTA, 1% NP-40) with 5 ug anti-DR5 antibody at 4°C, protein A/G beads overnight, 5 washes; Western blot for caspase 8, FLIP, FADD, c-Met and DR5

| Substance | binding |
| --- | --- |
| Fas-associated death domain (FADD) (from UniProt Q13158 1-208) | binds |
| c-Met, receptor of hepatocyte growth factor, transmembrane tyrosine kinase (from UniProt P08581 25-1390) | no binding |
